{
  "source": "ChEMBL document CHEMBL4513141",
  "about": "“CO-ADD screening of NIH (USA) - Clinical Collection” (2021)",
  "note": "This is one part of the list. Entries with a potency or affinity are not part of this list. Square brackets hold non-standard residues; d marks the D form. Peptide text beside a SMILES is read from it. pGlu = O=C1CC[C@@H](C(=O)O)N1; Thz = O=C(O)[C@@H]1CSCN1",
  "data": [
    {"test_system": "Acinetobacter baumannii", "details": "Concentration 20 uM; ASSAY_TEST Inhibition of Bacterial Growth; detection method Absorption (OD600); MEDIA CAMHB; plate type 384well; NBS; CORNING #3640; time 18 hr", "units": {"Inhibition": "%"}, "values": [
      {"smiles": "CC=CC(=O)N(CC)c1ccccc1C", "Inhibition": 21.1},
      {"smiles": "Nc1nc2c(ncn2COC(CO)CO)c(=O)[nH]1", "note": "[GANCICLOVIR]", "Inhibition": 17.44},
      {"smiles": "Cc1cccc(CCN2CCC(C(=O)c3ccc(NS(C)(=O)=O)cc3)CC2)n1.Cl.Cl", "Inhibition": 21.77},
      {"smiles": "CC(CN1c2ccccc2Sc2ccccc21)N(C)C.Cl", "note": "(configuration not stated) [PROMETHAZINE HYDROCHLORIDE]", "Inhibition": 12.59},
      {"smiles": "CCOC(=O)O[C@]1(C(=O)OCCl)CC[C@H]2[C@@H]3CCC4=CC(=O)C=C[C@]4(C)[C@H]3[C@@H](O)C[C@@]21C", "note": "[LOTEPREDNOL ETABONATE]", "Inhibition": 8.88},
      {"smiles": "CCCNC(=O)NS(=O)(=O)c1ccc(Cl)cc1", "note": "[CHLORPROPAMIDE]", "Inhibition": 26.36},
      {"smiles": "CC[C@H](C)C(=O)O[C@H]1CCC=C2C=C[C@H](C)[C@H](CC[C@@H]3C[C@@H](O)CC(=O)O3)[C@H]21", "note": "[MEVASTATIN]", "Inhibition": 7.81},
      {"smiles": "Cl.O=C(O)/C=C/c1ccc(Cn2ccnc2)cc1", "Inhibition": 7.99},
      {"smiles": "O=C1CC[C@@H](C(=O)N2CSC[C@H]2C(=O)O)N1", "note": "[PIDOTIMOD] ([pGlu]-[Thz]-OH)", "Inhibition": 27.17},
      {"smiles": "CCC1(c2ccccc2)C(=O)NCNC1=O", "note": "[PRIMIDONE]", "Inhibition": 25.44},
      {"smiles": "Nc1ncnc2c1ncn2[C@@H]1O[C@H](CO)[C@@H](O)[C@@H]1O", "note": "[VIDARABINE]", "Inhibition": 33.05},
      {"smiles": "NC(CO)(CO)CO.O=C(c1ccccc1)c1ccc2n1CCC2C(=O)O", "note": "(configuration not stated) [KETOROLAC TROMETHAMINE]", "Inhibition": 22},
      {"smiles": "CCOc1cc(N)c(Cl)cc1C(=O)NCC1CN(Cc2ccc(F)cc2)CCO1.O=C(O)CC(O)(CC(=O)O)C(=O)O", "note": "(configuration not stated) [MOSAPRIDE CITRATE]", "Inhibition": 22.9},
      {"smiles": "Cl.NC[C@H]1CC[C@H](C(=O)Oc2ccc(CCC(=O)O)cc2)CC1", "note": "[CETRAXATE HYDROCHLORIDE]", "Inhibition": 20.77},
      {"smiles": "CCOC(=O)[C@H](CCc1ccccc1)N[C@@H](C)C(=O)N1[C@H](C(=O)O)C[C@@H]2CCC[C@@H]21", "Inhibition": 26.7},
      {"smiles": "CC(C)NCC(O)COc1ccc(CC(N)=O)cc1", "note": "(configuration not stated) [ATENOLOL]", "Inhibition": 19.94},
      {"smiles": "Cc1[nH]cnc1CN1CCc2c(c3ccccc3n2C)C1=O.Cl", "note": "[ALOSETRON HYDROCHLORIDE]", "Inhibition": 10.49},
      {"smiles": "Cc1ccc(-c2cc(C(F)(F)F)nn2-c2ccc(S(N)(=O)=O)cc2)cc1", "note": "[CELECOXIB]", "Inhibition": 15.77},
      {"smiles": "C[C@@H]1CN(CCCn2c3ccccc3c3ccccc32)C[C@H](C)N1.Cl.O", "Inhibition": 9.18},
      {"smiles": "Cl.Clc1ccccc1CN1CCc2sccc2C1", "note": "[TICLOPIDINE HYDROCHLORIDE]", "Inhibition": 14.4},
      {"smiles": "CC(Cc1ccccc1)(NC(=O)CN)c1ccccc1.Cl", "note": "(configuration not stated) [REMACEMIDE HYDROCHLORIDE]", "Inhibition": 18.89},
      {"smiles": "CNCC(O)c1ccc(O)c(O)c1", "note": "(configuration not stated) [RACEPINEPHRINE]", "Inhibition": 4},
      {"smiles": "CC(C)Oc1ccc2c(=O)c(-c3ccccc3)coc2c1", "note": "[IPRIFLAVONE]", "Inhibition": 25.6},
      {"smiles": "CC(=O)Nc1nnc(S(N)(=O)=O)s1", "note": "[ACETAZOLAMIDE]", "Inhibition": 21.28},
      {"smiles": "CCCCC(=O)O[C@H]1CC[C@H]2[C@@H]3CCc4cc(O)ccc4[C@H]3CC[C@]12C", "note": "[ESTRADIOL VALERATE]", "Inhibition": 28.64},
      {"smiles": "CC(COc1ccccc1)NC(C)C(O)c1ccc(O)cc1.Cl", "note": "(configuration not stated) [ISOXSUPRINE HYDROCHLORIDE]", "Inhibition": 22.97},
      {"smiles": "COc1ccc(Cl)cc1C(=O)NCCc1ccc(S(=O)(=O)NC(=O)NC2CCCCC2)cc1", "note": "[GLYBURIDE]", "Inhibition": 12.14},
      {"smiles": "CN(C)CCCN1c2ccccc2CCc2ccc(Cl)cc21.Cl", "note": "[CLOMIPRAMINE HYDROCHLORIDE]", "Inhibition": 30.63},
      {"smiles": "COc1cc2nc(N3CCN(C(=O)C4COc5ccccc5O4)CC3)nc(N)c2cc1OC", "note": "(configuration not stated) [DOXAZOSIN]", "Inhibition": 24.9},
      {"smiles": "Cc1cccc(C)c1OCC(C)N.Cl", "note": "(configuration not stated) [MEXILETINE HYDROCHLORIDE]", "Inhibition": 22.29},
      {"smiles": "Cn1nnc2c(C(N)=O)ncn2c1=O", "note": "[TEMOZOLOMIDE]", "Inhibition": 5.77},
      {"smiles": "Nc1nc(N)c2nc(-c3ccccc3)c(N)nc2n1", "Inhibition": 11.64},
      {"smiles": "CC(C)(C)NC[C@H](O)COc1nsnc1N1CCOCC1.O=C(O)/C=C\\C(=O)O", "note": "[TIMOLOL MALEATE]", "Inhibition": 8.85},
      {"smiles": "C[C@H](CS)C(=O)N1CCC[C@H]1C(=O)O", "note": "[CAPTOPRIL]", "Inhibition": 30},
      {"smiles": "O=S(=O)([O-])CCS.[Na+]", "note": "[MESNA]", "Inhibition": 26.36},
      {"smiles": "CC(C)[C@H](N)C(=O)OCCOCn1cnc2c(=O)nc(N)[nH]c21.Cl", "note": "[VALACYCLOVIR HYDROCHLORIDE]", "Inhibition": 7.25},
      {"smiles": "Cl.Nc1c2c(nc3ccccc13)CCCC2", "note": "[TACRINE HYDROCHLORIDE]", "Inhibition": 30.66},
      {"smiles": "CCOC(=O)c1ccc(OC(=O)CCCCCN=C(N)N)cc1.CS(=O)(=O)O", "Inhibition": 25.93},
      {"smiles": "O=C(O)c1cccnc1", "note": "[NIACIN]", "Inhibition": 23.01},
      {"smiles": "CCN(CC)CCNC(=O)c1ccc(N)cc1.Cl", "note": "[PROCAINAMIDE HYDROCHLORIDE]", "Inhibition": 8.37},
      {"smiles": "NNC(=O)c1ccncc1", "note": "[ISONIAZID]", "Inhibition": 18.82},
      {"smiles": "Cl.OC(CCN1CCCC1)(c1ccccc1)C1CCCCC1", "note": "(configuration not stated) [PROCYCLIDINE HYDROCHLORIDE]", "Inhibition": 23.66},
      {"smiles": "COc1ccc(-c2cc(=O)c3c(OC)c(OC)c(OC)c(OC)c3o2)cc1OC", "note": "[NOBILETIN]", "Inhibition": 16.27},
      {"smiles": "COc1cc(OC)c(C(=O)CCCN2CCCC2)c(OC)c1.Cl", "Inhibition": 20.1},
      {"smiles": "CC1(C)S[C@@H]2[C@H](NC(=O)[C@H](N)c3ccc(O)cc3)C(=O)N2[C@H]1C(=O)O", "note": "[AMOXICILLIN]", "Inhibition": 22.8},
      {"smiles": "CNNCc1ccc(C(=O)NC(C)C)cc1.Cl", "note": "[PROCARBAZINE HYDROCHLORIDE]", "Inhibition": 16.44},
      {"smiles": "CC[N+](C)(CC)CCOC(=O)C(O)(c1ccccc1)C1CCCCC1.[Br-]", "note": "(configuration not stated) [OXYPHENONIUM BROMIDE]", "Inhibition": 27.96},
      {"smiles": "CC(C(=O)[O-])c1ccc(CC2CCCC2=O)cc1.[Na+]", "note": "(configuration not stated) [LOXOPROFEN SODIUM]", "Inhibition": 25.96},
      {"smiles": "CN(C)[C@@H]1C(=O)C(C(=O)NCN2CCCC2)=C(O)[C@@]2(O)C(O)=C3C(=O)c4c(O)cccc4[C@@](C)(O)C3CC12", "note": "(some centres not stated)", "Inhibition": 12.28},
      {"smiles": "CC(=O)OCC(=O)[C@@]1(O)CC[C@H]2[C@@H]3C[C@H](C)C4=CC(=O)C=C[C@]4(C)[C@H]3[C@@H](O)C[C@@]21C", "note": "[METHYLPREDNISOLONE ACETATE]", "Inhibition": 10.16},
      {"smiles": "CCCCC(=O)N(Cc1ccc(-c2ccccc2-c2nnn[nH]2)cc1)[C@H](C(=O)O)C(C)C", "Inhibition": 5.64},
      {"smiles": "CN1CCC(=C2c3ccccc3CCc3sccc32)CC1.O=C(O)/C=C\\C(=O)O", "Inhibition": 24.13},
      {"smiles": "CCOC(=O)C1=C(C)NC(C)=C(C(=O)OC)C1c1cccc(Cl)c1Cl", "note": "(configuration not stated) [FELODIPINE]", "Inhibition": 21.16},
      {"smiles": "O=C([O-])Cc1ccccc1Nc1c(Cl)cccc1Cl.[Na+]", "note": "[DICLOFENAC SODIUM]", "Inhibition": 11.66},
      {"smiles": "C=C[C@H]1CN2CC[C@H]1C[C@@H]2[C@@H](O)c1ccnc2ccc(OC)cc12", "note": "[QUINIDINE]", "Inhibition": 15.14},
      {"smiles": "O=C1Nc2ccc(Cl)cc2[C@@](C#CC2CC2)(C(F)(F)F)O1", "note": "[EFAVIRENZ]", "Inhibition": 17.76},
      {"smiles": "COC1=CC(=O)C[C@@H](C)[C@]12Oc1c(Cl)c(OC)cc(OC)c1C2=O", "note": "[GRISEOFULVIN]", "Inhibition": 27.35},
      {"smiles": "COc1cc(N)c(Cl)cc1C(=O)N[C@@H]1CCN(CCCOc2ccc(F)cc2)C[C@@H]1OC.O", "note": "[(R,S)-CISAPRIDE MONOHYDRATE]", "Inhibition": 3.65},
      {"smiles": "CS(=O)(=O)O.Cc1ccc(NC(=O)c2ccc(CN3CCN(C)CC3)cc2)cc1Nc1nccc(-c2cccnc2)n1", "note": "[IMATINIB MESYLATE]", "Inhibition": 20.85},
      {"smiles": "CCCC(CCC)C(=O)O", "note": "[VALPROIC ACID]", "Inhibition": 7.03},
      {"smiles": "CN(C)CC[C@@H](c1ccc(Cl)cc1)c1ccccn1.O=C(O)/C=C\\C(=O)O", "note": "[DEXCHLORPHENIRAMINE MALEATE]", "Inhibition": 8.4},
      {"smiles": "CCc1ccc(CCOc2ccc(CC3SC(=O)NC3=O)cc2)nc1.Cl", "note": "(configuration not stated) [PIOGLITAZONE HYDROCHLORIDE]", "Inhibition": 5.47},
      {"smiles": "C[C@H]1O[C@@H](O[C@H]2[C@@H](O)C[C@H](O[C@H]3[C@@H](O)C[C@H](O[C@H]4CC[C@@]5(C)[C@H](CC[C@@H]6[C@@H]5C[C@@H](O)[C@]5(C)C(C7=CC(=O)OC7)CC[C@]65O)C4)O[C@@H]3C)O[C@@H]2C)C[C@H](O)[C@@H]1O", "note": "(some centres not stated)", "Inhibition": 15.68},
      {"smiles": "COc1ccccc1OCCNCC(O)COc1cccc2[nH]c3ccccc3c12", "note": "(configuration not stated) [CARVEDILOL]", "Inhibition": 34.02},
      {"smiles": "CC(C)c1nc(CN(C)C(=O)N[C@H](C(=O)N[C@@H](Cc2ccccc2)C[C@H](O)[C@H](Cc2ccccc2)NC(=O)OCc2cncs2)C(C)C)cs1", "note": "[RITONAVIR]", "Inhibition": 28.09},
      {"smiles": "Cl.O.OC[C@H]1O[C@@H](n2cnc3c(N[C@H]4CCC[C@@H]4O)ncnc32)[C@@H](O)C1O", "note": "(some centres not stated)", "Inhibition": 18.05},
      {"smiles": "CC(C)[C@H]1CC[C@H](C(=O)N[C@H](Cc2ccccc2)C(=O)O)CC1", "note": "[NATEGLINIDE]", "Inhibition": 34.99},
      {"smiles": "COc1nc(C)nc(Cl)c1NC1=NCCN1.Cl", "note": "[MOXONIDINE HYDROCHLORIDE]", "Inhibition": 8.86},
      {"smiles": "Cl.Nc1nc2ccc(OC(F)(F)F)cc2s1", "Inhibition": 24.39},
      {"smiles": "CCN1CCCC1CNC(=O)c1cc(S(=O)(=O)CC)c(N)cc1OC", "note": "(configuration not stated) [AMISULPRIDE]", "Inhibition": 17.5},
      {"smiles": "C/C=C1/[C@H]2C=C(C)C[C@]1(N)c1ccc(O)nc1C2", "Inhibition": 21.75},
      {"smiles": "NS(=O)(=O)c1cc2c(cc1C(F)(F)F)NC(Cc1ccccc1)NS2(=O)=O", "note": "(configuration not stated) [BENDROFLUMETHIAZIDE]", "Inhibition": 25.43}
    ]}
  ]
}
